This note sets out measurements from PubChem BioAssay AID2685 (National Center for Advancing Translational Sciences (NCATS), 2010).

A short description of this experiment: qHTS Assay for Lipid Storage Modulators in Drosophila S3 Cells.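 On cell number change: cells counted by Cell Tracker Red CMTPX staining in the red channel.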 The settings on record: BODIPY lipid droplet fluorescence, 18-24 h; for cell number change: measured here: cell count max response, cells fed with added oleic acid. A digest of the protocol:
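Drosophila S3 cells loaded with oleic acid (400 uM, as added) and compounds at several concentrations; lipid droplets imaged by 488-nm laser-scanning cytometry, 500–530 nm intensity and object ratio to cell channel. Percent activity normalized to 20 uM Triacsin C.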
For orientation: In qHTS, concentration-response curves come from the screen itself.

Where [1] appears, read: measured here: lipid fluorescence (Fed channel) AC50, cells fed with added oleic acid.
Setting [2] is: measured here: cell number channel AC50, cells fed with added oleic acid.

Each structure is given as a SMILES string. The list shows a part of the results. The main result of the screen is listed elsewhere. These columns were measured beside it and carry no call. Compounds called inactive in the main read-out are mostly missing here. Words in brackets tell the shape of the fitted curve; partial curves, single points and poor fits give uncertain potencies.

A word on the AC50: it is the midpoint of the concentration-response curve, whichever way the signal moves. Low readings indicate activity at low concentration, high ones activity only at high concentration. For `COc1ccc(-c2nc3c(n2O)CCCC3=O)cc1OC`, the cell number change is -4.63%. Moreover, the AC50 under setting [1] is 6510 nM [falling, single point]. `Cc1ccc(C2C3CSCC=C3C(C#N)=C(N)C2(C#N)C#N)cc1` (stereo not drawn): the AC50 under setting [1] was 130 nM [rising, full curve, poor fit]. As for `C=CCC(COCc1ccccc1)NS(=O)(=O)c1ccccc1Br` (stereo not drawn), the cell number change turned out to be 21.2%. The AC50 under setting [1] is 4110 nM [rising, full curve, poor fit].

Consider `Cc1ccc(-c2nnc(NC(=O)c3c(F)cccc3Cl)s2)cc1`, for which the cell number change amounted to 11%. In the case of `Cc1ccc(-c2nn(-c3ccccc3)cc2C(=O)NC2CCC(O)CC2)cc1` (stereo not drawn), the cell number change is 11.6%. Besides, the AC50 under setting [2] was 1640 nM [falling, partial curve]. The AC50 under setting [1] was 130 nM [falling, full curve, poor fit]. Consider `Cc1ccc(N2C(=O)C(Cl)=C(N3CCOCC3)C2=O)cc1Cl`, for which the cell number change came to 3.3%. The AC50 under setting [2] is 731 nM [rising, single point]. As for `Cc1cc(C(=O)COC(=O)Cn2c(C(F)(F)F)nc3ccccc32)c(C)n1Cc1ccco1`, the cell number change was determined as 1.76%. Further, the AC50 under setting [1] is 73.1 nM [rising, full curve, poor fit].

Regarding `COc1ccc(S(=O)(=O)Nc2cccnc2)cc1`, the cell number change is 22.4%. Also, under setting [1], the AC50 is 7310 nM [rising, partial curve]. Consider `O=C(Cc1cccs1)Nc1nc(-c2ccccc2)cs1`, for which the cell number change is 78.2%. In addition, under setting [2], the AC50 was 8200 nM [rising, partial curve]. Besides, the AC50 under setting [1] is 6510 nM [rising, partial curve, poor fit]. With `Cc1cc(C)n2cc(COc3ccccc3)nc2n1`, the cell number change worked out at 21.7%. Moreover, under setting [1], the AC50 is 5800 nM [rising, full curve]. Turning to `CCc1nc(C)cn1S(=O)(=O)c1ccc(Cl)c(Cl)c1Cl`, the AC50 under setting [2] is 5170 nM [rising, single point]. For `Fc1ccc(-c2ccnc3nc(-n4cccc4)nn23)cc1`, the cell number change stood at 4.44%. Turning to `COc1cc(C2C(C#N)=C(N)Oc3c2ccc2ccccc32)ccc1OCC(=O)Nc1cccc(C)c1` (stereo not drawn), the cell number change worked out at 16.7%. Under setting [1], the AC50 is 4110 nM [rising, single point]. Regarding `COC(=O)c1c[nH]n2c(=O)c(C(C)C)c(C)nc12`, the AC50 reads like this: under setting [2], 4110 nM [falling, single point]; under setting [1], 6510 nM [falling, single point].

In the case of `FC(F)Sc1ccc(NC(=S)NC(c2ccccc2)c2ccccc2)cc1`, the cell number change was -31.8%. The AC50 under setting [2] was 5170 nM [falling, full curve, poor fit]. The AC50 under setting [1] is 5800 nM [falling, full curve]. In the case of `CC1(c2ccccc2Cl)NC(=O)N(CC(=O)N2c3ccccc3NC(=O)C2(C)C)C1=O` (stereo not drawn), the cell number change worked out at 18.4%. For the same compound, the AC50 under setting [1] is 6510 nM [rising, full curve, poor fit]. In the case of `COC(=O)c1ccccc1S(=O)(=O)N(Cc1cc2ccc(OC)cc2[nH]c1=O)CC1CCCO1` (stereo not drawn), the cell number change was -6.78%. Besides, under setting [1], the AC50 is 2310 nM [rising, full curve].

`O=C(CCC1COc2ccccc2O1)NC1CCCCC1` (stereo not drawn): the AC50 under setting [2] was 651 nM [rising, full curve]. In the case of `Cc1ccc(N(CC(=O)NCc2ccc(F)cc2)C(=O)c2ccco2)cc1C`, the cell number change is -1.9%. For the compound `CCOc1ccccc1NC(=O)COC(=O)c1c(CC)noc1C`, the AC50 is 2910 nM [falling, partial curve] under setting [2] and 1840 nM [falling, partial curve] under setting [1]. For the compound `CC(C)(C)NC(=O)NC(=O)COC(=O)Cc1c(F)cccc1Cl`, the cell number change is -28.5%.

On to `COc1ccc(OC)c(C2/C(=C(/O)c3cnn(-c4ccccc4)c3C)C(=O)C(=O)N2CCN(C)C)c1` (stereo not drawn), for which the cell number change was -26.5%. In addition, the AC50 under setting [1] is 36.6 nM [rising, full curve, poor fit]. As to `CCOc1ccc(-n2ccnc2SCC(=O)Nc2nnc(CC)s2)cc1`, the cell number change was -16.5%. The AC50 under setting [1] is 580 nM [falling, full curve, poor fit].

Regarding `COCCNC(=O)CN(Cc1ccccc1)C(=O)CCC(=O)Nc1nccs1`, the cell number change came to 4.7%. Turning to `CCC(=O)c1ccc(OCC(=O)Nc2nc(-c3cccnc3)cs2)cc1`, the cell number change is -11.2%.

Consider `CCCCc1nnc(NC(=O)c2cccc(S(=O)(=O)N3CCN(C)CC3)c2)s1`, for which the cell number change was -12.6%. Moreover, under setting [2], the AC50 was 58 nM [falling, full curve, poor fit]. `O=S(=O)(c1ccccc1)c1nc(NCc2ccccc2)sc1Cl`: the cell number change is 19.9%. For the same compound, the AC50 under setting [2] was 1840 nM [falling, partial curve, poor fit]. Turning to `COc1cc(-c2ccc3sc(-c4ccsc4)c(C#CCO)c3c2)cc(OC)c1OC`, the AC50 was 1160 nM [falling, single point] under setting [2] and 116 nM [falling, full curve, poor fit] under setting [1].

Consider `Cc1ccc(S(=O)(=O)Nc2nnc(C3CCCCC3)s2)cc1`, for which the AC50 was 1030 nM [falling, partial curve] under setting [2] and 6510 nM [falling, single point] under setting [1]. Regarding `O=C(O)CCCN1C(=O)c2ccccc2Sc2ncccc21`, the cell number change is -6.31%.

For `COc1ccccc1C(=O)Nc1ccc(OCc2nnc3c4ccccc4c(C)nn23)cc1`, the cell number change was -62.1%. Moreover, the AC50 under setting [2] was 29100 nM [falling, single point]. The AC50 under setting [1] was 116 nM [rising, full curve, poor fit]. `COc1ccccc1CNC(=O)c1c(N)n(CCCN2CCOCC2)c2nc3ccccc3nc12`: the cell number change is -29.9%. The AC50 under setting [1] is 20600 nM [falling, single point]. Consider `O=C(c1ccc2c(=O)n3c(nc2c1)CCC3)N1CCCSC1=Nc1ccccc1`, for which the cell number change was -18.2%. `O=C(c1ccc2c(=O)n3c(nc2c1)CCCCC3)N1CCN(c2ccc([N+](=O)[O-])cc2)CC1`: the cell number change was 7.22%. For the same compound, under setting [2], the AC50 is 2590 nM [rising, partial curve, poor fit]. Moreover, under setting [1], the AC50 was 1840 nM [rising, partial curve]. Turning to `CC(C)Oc1ccc(C2CC(=O)N(c3cccc(C(=O)O)c3)C2=O)cc1` (stereo not drawn), the cell number change was 6.95%. Besides, under setting [1], the AC50 is 2060 nM [falling, full curve]. With `O=C(COc1cc2oc(=O)c3c(c2cc1Cl)CCC3)NCc1ccccn1`, the cell number change turned out to be 7.25%. The AC50 under setting [2] was 14.6 nM [falling, full curve, poor fit]. Moreover, the AC50 under setting [1] is 231 nM [falling, full curve, poor fit]. With `O=C(O)CNC(=O)c1ccc(NC(=O)/C(=C/c2cccc([N+](=O)[O-])c2)NC(=O)c2ccco2)cc1`, the cell number change is -9.12%. Under setting [1], the AC50 is 731 nM [rising, full curve, poor fit]. `N#CC1=C(S)N(c2ccc(F)cc2)C(c2cccs2)NC1=O` (stereo not drawn): the cell number change is -19.4%. The AC50 under setting [2] is 3660 nM [falling, single point]. The AC50 under setting [1] was 5.17 nM [falling, full curve, poor fit].

Regarding `CC(=O)N/N=C(\C)c1ccc2c(c1)OCCO2`, the cell number change was 13.1%. In addition, the AC50 under setting [2] was 65.1 nM [rising, full curve, poor fit]. Also, the AC50 under setting [1] is 3660 nM [rising, full curve, poor fit].

Take `O=C(NCCc1csc(-c2ccc(C(F)(F)F)cc2)n1)c1cccs1`: the cell number change came out at 16.8%. Moreover, the half-maximal activity concentration (AC50) under setting [1] is 4610 nM [rising, full curve, poor fit]. On to `CCOCC(=O)Nc1cc(C(=O)NCCC(C)C)ccc1Cl`, for which the cell number change amounted to 6.89%.

`O=C(NC(=S)Nc1nc2c(s1)CSc1ccccc1-2)c1ccccc1`: the cell number change is -31.4%. The AC50 under setting [2] is 1640 nM [rising, partial curve]. The AC50 under setting [1] is 2060 nM [rising, partial curve].

For the compound `O=C(COC(=O)/C=C/c1cccc(Cl)c1Cl)Nc1ccc2[nH]c(=O)[nH]c2c1`, the cell number change was -32.3%. Further, the AC50 under setting [2] is 7310 nM [falling, partial curve]. For `COc1ccc(-c2noc3c2-c2nc(-c4ccccc4F)sc2CC3)cc1`, the cell number change was found to be 24%. Regarding `Cc1ccc(C)c(-n2c3nc(=O)n(C)c(=O)c-3cc3ccccc32)c1`, the cell number change was found to be 18.8%. For the same compound, under setting [1], the AC50 was 18400 nM [rising, single point]. `CCN(CC(=O)Nc1ccc(NC(C)=O)cc1)C(=O)c1oc2ccccc2c1C`: the cell number change came to 0.879%. Moreover, under setting [1], the concentration at half-maximal activity (AC50) was 580 nM [falling, single point]. Consider `CCCCOC(=O)CN1C(=O)c2ccc(C(=O)OCCCC)cc2C1=O`, for which the cell number change was -95.4%. Besides, the AC50 under setting [2] was 20600 nM [falling, partial curve, poor fit]. Also, under setting [1], the AC50 was 16400 nM [falling, partial curve]. In the case of `Cc1cccc(C)c1NC(=O)C(NC(=O)c1ccccn1)c1ccc([N+](=O)[O-])cc1` (stereo not drawn), the cell number change was found to be 73.2%. Moreover, the AC50 under setting [2] is 1300 nM [rising, full curve]. The AC50 under setting [1] was 2060 nM [rising, full curve]. Turning to `COc1cc(OC)cc(C(=O)NNC(=O)CCOc2ccccc2OC)c1`, the cell number change was -15%. The AC50 under setting [2] is 146 nM [falling, full curve, poor fit]. In addition, the AC50 under setting [1] is 130 nM [falling, full curve, poor fit]. On to `Cc1ccc(NC(=O)Nc2c(C)n(C)n(-c3ccccc3)c2=O)cc1C`, for which the cell number change came out at 33.8%. Besides, under setting [2], the half-maximal activity concentration (AC50) is 5800 nM [rising, full curve]. The AC50 under setting [1] was 1460 nM [rising, full curve]. As for `CC1(C)Cc2nc3sc4c(=O)n(CC(=O)NCc5ccccc5)cnc4c3cc2CO1`, the cell number change is -20.7%. Further, the AC50 under setting [1] is 146 nM [falling, full curve]. On to `COc1cccc(CNS(=O)(=O)c2ccc(-n3cnnn3)c(C)c2)c1`, for which the cell number change was 6.41%. Moreover, the AC50 under setting [1] is 116 nM [falling, single point]. On to `Cc1ccc(NS(=O)(=O)c2c(C)[nH]c(=O)[nH]c2=O)cc1F`, for which the cell number change is 27%. Besides, the AC50 under setting [1] was 16400 nM [rising, partial curve]. In the case of `S=c1[nH]nc(-c2ccco2)n1/N=C/c1cccs1`, the cell number change is -22.4%. Besides, the AC50 under setting [1] is 18400 nM [falling, single point]. With `CC(=O)Nc1ccc(C(=O)OCc2ccc(Br)cc2)cc1`, the cell number change is -32.5%. The AC50 under setting [2] is 29100 nM [falling, single point]. On to `CCOc1ccc(C(C(=O)NCC2CCCO2)N(C(=O)c2snc(C(N)=O)c2N)c2ccccc2F)cc1` (stereo not drawn), for which the cell number change is -8.97%.

Regarding `CCOC(=O)c1ccccc1NC(=O)CN(c1ccccc1OC)S(C)(=O)=O`, the cell number change was found to be 6.26%. For the same compound, the AC50 under setting [1] is 29100 nM [rising, single point].
